# Source: patent publication US12419304B2, “Aryl sulfide comprising benzylamine, synthesis method and application thereof” (Shandong Kangqiao Bio-Technology Co., Ltd., priority 2019, dated 2025)
# Some results were stated once for a whole list of compounds, not compound by compound.
# System: Tetranychus cinnabarinus
# Experiment: Activity test of Tetranychus cinnabarinus (spray on inoculated bean seedlings, mortality after 72 hours)
# Format: in vivo
# Settings: 25 ppm (25 mg/L), whole plant sprayed
# Method: Activity Test of Tetranychus cinnabarinus
# The compound under test was dissolved in acetone and diluted to desired concentration with 0.1% Tween 80 solution with acetone content not exceeding 5%.
# One true leaf was removed from the bean seedlings having two true leaves. Tanyanychus cinarinus was inoculated and the cardinal number thereof investigated. The whole plant was sprayed with a handheld sprayer, and each treatment was repeated for 3 times. After treatment, the bean seedlings were cultured in a constant temperature room. 72 hours later, the number of live mites was investigated and the mortality rate was calculated. The number of Tetranychus cinnabarinus was 100-200 per inoculation. Mortality=(number of inoculated mites−number of live mites after treatment)[…]×100%.
row,Compound,lethal rate against mites
1,COC(=O)c1cc(Cl)ccc1CNc1cc([S+]([O-])CC(F)(F)F)c(C)cc1F (stereo not drawn) [Compound 536],more than 90%
2,COC(=O)c1cc(Cl)ccc1CNc1cc(SCC(F)(F)F)c(C)cc1F [Compound 535],more than 90%
3,CCSc1ccccc1CNc1cc([S+]([O-])CC(F)(F)F)c(C)cc1F (stereo not drawn) [Compound 108],more than 90%
4,CCSc1cc(F)ccc1CNc1cc([S+]([O-])CC(F)(F)F)c(C)cc1F (stereo not drawn) [Compound 366],more than 90%
5,Cc1cc(F)c(NCc2ccc(F)cc2SCC(F)(F)F)cc1[S+]([O-])CC(F)(F)F (stereo not drawn) [Compound 1319],more than 90%
6,COC(=O)c1cc(Cl)ccc1CNc1cc([S+]([O-])CC(F)(F)F)c(Cl)cc1F (stereo not drawn) [Compound 1168],more than 90%

# Same assay, conditions: 100 ppm (100 mg/L), whole plant sprayed
row,Compound,lethal rate against mites
1,COC(=O)c1cc(Cl)ccc1CNc1cc([S+]([O-])CC(F)(F)F)c(C)cc1F (stereo not drawn) [Compound 536],over 90%
2,CCC[S+]([O-])c1cc(NCc2ccccc2C(=O)OCC)c(F)cc1C (stereo not drawn) [Compound 820],over 90%
3,Cc1cc(F)c(NCc2ccc(F)cc2[S+]([O-])CC(F)(F)F)cc1[S+]([O-])CC(F)(F)F (stereo not drawn) [Compound 1329],over 90%
4,COC(=O)c1cc(Cl)ccc1CNc1cc(SCC(F)(F)F)c(C)cc1F [Compound 535],over 90%
5,CCCSc1cc(NCc2ccccc2C(=O)OC)c(F)cc1C [Compound 817],over 90%
6,Cc1cc(F)c(NCc2ccccc2Br)cc1[S+]([O-])CC(F)(F)F (stereo not drawn) [Compound 30],over 90%
7,CCCOC(=O)c1ccccc1CNc1cc(SCC(F)(F)F)c(C)cc1F [Compound 57],over 90%
8,CCOC(=O)c1ccccc1CNc1cc([S+]([O-])CC(F)(F)F)c(Cl)cc1Cl (stereo not drawn) [Compound 1046],over 90%
9,CCSc1ccccc1CNc1cc(SCC(F)(F)F)c(Cl)cc1F [Compound 1256],over 90%
10,Cc1cc(C)c(SCC(F)(F)F)cc1NCc1ccc(Cl)cc1F [Compound 619],over 90%
11,CCOc1ccccc1CNc1cc(SCC(F)(F)F)c(C)cc1F [Compound 97],over 90%
12,COC(=O)c1ccccc1CNc1cc(SCC(F)(F)F)c(C)cc1C [Compound 167],over 90%
13,CCCSc1cc(NCc2ccc(F)cc2C(=O)OC)c(F)cc1C [Compound 1113],over 90%
14,CCC[S+]([O-])c1cc(NCc2ccc(F)cc2C(=O)OC)c(F)cc1C (stereo not drawn) [Compound 1114],over 90%
15,Cc1cc(F)c(NCc2ccc(F)cc2[N+](=O)[O-])cc1[S+]([O-])CC(F)(F)F (stereo not drawn) [Compound 286],over 90%
16,CCCSc1cc(NCc2ccccc2C(=O)CC)c(F)cc1C [Compound 807],over 90%
17,Cc1cc(F)c(NCc2ccccc2Cl)cc1[S+]([O-])CC(F)(F)F (stereo not drawn) [Compound 28],over 90%
18,C=COC(=O)c1ccccc1CNc1cc([S+]([O-])CC(F)(F)F)c(C)cc1F (stereo not drawn) [Compound 68],over 90%
19,CCC[S+]([O-])c1cc(NCc2ccc(Cl)cc2C(=O)OC)c(F)cc1C (stereo not drawn) [Compound 1116],over 90%
20,Cc1cc(F)c(NCc2cccc(F)c2)cc1[S+]([O-])CC(F)(F)F (stereo not drawn) [Compound 230],over 90%
21,Cc1cc(F)c(NCc2ccc(F)cc2[N+](=O)[O-])cc1SCC(F)(F)F [Compound 285],over 90%
22,Cc1cc(F)c(NCc2ccc(Cl)cc2F)cc1[S+]([O-])CC(F)(F)F (stereo not drawn) [Compound 508],over 90%
23,[O-][S+](CC(F)(F)F)c1cc(NCc2ccc(F)cc2SCC(F)F)c(F)cc1Cl (stereo not drawn) [Compound 1289],over 90%
24,CCCOc1ccccc1CNc1cc(SCC(F)(F)F)c(C)cc1F [Compound 99],over 90%

row,Compound,lethal rate against mites
1,CCSc1ccccc1CNc1cc([S+]([O-])CC(F)(F)F)c(C)cc1F (stereo not drawn) [Compound 108],over 90%
2,C=COC(=O)c1ccccc1CNc1cc([S+]([O-])CC(F)(F)F)c(Cl)cc1F (stereo not drawn) [Compound 1217],over 90%
3,CCC[S+]([O-])c1cc(NCc2ccccc2C(=O)NC)c(C)cc1C (stereo not drawn) [Compound 958],over 90%
4,Cc1cc(F)c(NCc2ccc(F)cc2[S+]([O-])CC(F)(F)F)cc1SCC(F)(F)F (stereo not drawn) [Compound 1328],over 90%
5,CCOC(=O)c1ccccc1CNc1cc(SCC(F)(F)F)c(Cl)cc1Cl [Compound 1045],over 90%
6,CC(=O)c1cc(F)ccc1CNc1cc(SCC(F)(F)F)c(C)cc1F [Compound 291],over 90%
7,Cc1cc(C)c(SCC(F)(F)F)cc1NCc1ccccc1F [Compound 139],over 90%
8,CCSc1cc(F)ccc1CNc1cc([S+]([O-])CC(F)(F)F)c(C)cc1F (stereo not drawn) [Compound 366],over 90%
9,CC(=O)c1cc(Cl)ccc1CNc1cc(SCC(F)(F)F)c(C)cc1C [Compound 635],over 90%
10,[O-][S+](CC(F)(F)F)c1cc(NCc2ccc(F)cc2SCCF)c(F)cc1Cl (stereo not drawn) [Compound 1287],over 90%
11,CCC(=O)c1cc(F)ccc1CNc1cc([S+]([O-])CC(F)(F)F)c(C)cc1F (stereo not drawn) [Compound 294],over 90%
12,C=COC(=O)c1cc(F)ccc1CNc1cc([S+]([O-])CC(F)(F)F)c(C)cc1F (stereo not drawn) [Compound 318],over 90%
13,CCOC(=O)c1cc(F)ccc1CNc1cc([S+]([O-])CC(F)(F)F)c(C)cc1C (stereo not drawn) [Compound 426],over 90%
14,Cc1cc(F)c(NCc2ccc(F)cc2SCC(F)(F)F)cc1[S+]([O-])CC(F)(F)F (stereo not drawn) [Compound 1319],over 90%
15,Cc1cc(F)c(NCc2ccc(Cl)cc2Cl)cc1[S+]([O-])CC(F)(F)F (stereo not drawn) [Compound 510],over 90%
16,Cc1cc(F)c(NCc2cccc(Cl)c2)cc1SCC(F)(F)F [Compound 231],over 90%
17,Cc1cc(F)c(NCc2ccccc2C(F)(F)F)cc1SCC(F)(F)F [Compound 3],over 90%
18,Cc1cc(F)c(NCc2ccccc2SCC(F)F)cc1[S+]([O-])CC(F)(F)F (stereo not drawn) [Compound 1307],over 90%
19,CCOC(=O)c1ccccc1CNc1cc(SCC(F)(F)F)c(Cl)cc1F [Compound 1204],over 90%
20,CCOc1cc(F)ccc1CNc1cc([S+]([O-])CC(F)(F)F)c(C)cc1F (stereo not drawn) [Compound 356],over 90%
21,COC(=O)c1cc(Cl)ccc1CNc1cc([S+]([O-])CC(F)(F)F)c(Cl)cc1F (stereo not drawn) [Compound 1168],over 90%
22,COc1ccccc1CNc1cc(SCC(F)(F)F)c(C)cc1F [Compound 95],over 90%
23,CCC(=O)c1cc(F)ccc1CNc1cc(SCC(F)(F)F)c(C)cc1F [Compound 293],over 90%
24,CCCOc1cc(F)ccc1CNc1cc([S+]([O-])CC(F)(F)F)c(C)cc1F (stereo not drawn) [Compound 358],over 90%

row,Compound,lethal rate against mites
1,Cc1cc(C)c([S+]([O-])CC(F)(F)F)cc1NCc1ccc(Cl)cc1F (stereo not drawn) [Compound 620],over 90%
2,Cc1cc(F)c(NCc2ccc(F)cc2SCCF)cc1[S+]([O-])CC(F)(F)F (stereo not drawn) [Compound 1323],over 90%
3,CC(=O)c1ccccc1CNc1cc(SCC(F)(F)F)c(Cl)cc1Cl [Compound 1031],over 90%
4,COC(=O)c1cc(F)ccc1CNc1cc(SCC(F)(F)F)c(C)cc1C [Compound 423],over 90%
5,CCc1ccccc1CNc1cc([S+]([O-])CC(F)(F)F)c(C)cc1F (stereo not drawn) [Compound 6],over 90%
6,CC(=O)c1cc(Cl)ccc1CNc1cc([S+]([O-])CC(F)(F)F)c(C)cc1C (stereo not drawn) [Compound 636],over 90%
7,Cc1ccccc1CNc1cc(SCC(F)(F)F)c(C)cc1F [Compound 1],over 90%
8,Cc1cc(F)c(NCc2cccc(Cl)c2)cc1[S+]([O-])CC(F)(F)F (stereo not drawn) [Compound 232],over 90%
9,Cc1cc(F)c(NCc2ccc(F)cc2SCC(F)F)cc1[S+]([O-])CC(F)(F)F (stereo not drawn) [Compound 1325],over 90%
10,CCC[S+]([O-])c1cc(NCc2ccccc2C(C)=O)c(F)cc1C (stereo not drawn) [Compound 806],over 90%
11,COC(=O)c1ccccc1CNc1cc(SCC(F)(F)F)c(Cl)cc1Cl [Compound 1043],over 90%
12,CCSc1ccccc1CNc1cc([S+]([O-])CC(F)(F)F)c(Cl)cc1F (stereo not drawn) [Compound 1257],over 90%
13,COC(=O)c1cc(Cl)ccc1CNc1cc(SCC(F)(F)F)c(C)cc1C [Compound 647],over 90%
14,Cc1cc(F)c(NCc2ccccc2CO)cc1SCC(F)(F)F [Compound 39],over 90%
15,COc1cc(Cl)ccc1CNc1cc([S+]([O-])CC(F)(F)F)c(C)cc1F (stereo not drawn) [Compound 578],over 90%
16,Cc1cc(C)c(SCC(F)(F)F)cc1NCc1ccccc1Cl [Compound 141],over 90%
17,[O-][S+](CC(F)(F)F)c1cc(F)ccc1CNc1cc(SCC(F)(F)F)c(Cl)cc1F (stereo not drawn) [Compound 1292],over 90%
18,Cc1ccccc1CNc1cc([S+]([O-])CC(F)(F)F)c(C)cc1F (stereo not drawn) [Compound 2],over 90%
19,Cc1cc(F)ccc1CNc1cc(SCC(F)(F)F)c(C)cc1F [Compound 253],over 90%
20,CCOC(=O)c1ccccc1CNc1cc(SCC(F)(F)F)c(C)cc1C [Compound 169],over 90%
21,CCCOc1cc(F)ccc1CNc1cc(SCC(F)(F)F)c(C)cc1F [Compound 357],over 90%
22,Cc1cc(F)c(NCc2ccc(F)cc2C#N)cc1[S+]([O-])CC(F)(F)F (stereo not drawn) [Compound 284],over 90%
23,Cc1cc(F)c(NCc2ccc(F)cc2F)cc1SCC(F)(F)F [Compound 275],over 90%
24,CCCSc1ccccc1CNc1cc([S+]([O-])CC(F)(F)F)c(C)cc1F (stereo not drawn) [Compound 110],over 90%
